Data: patent publication US20100137376A1 (priority 2007, published 2010)
Some entries share one result that the patent states for a list of compounds. At least one structure is not confirmed: it was looked up by name or label, or the drawing left a doubt.

How the values were obtained:
Format in all cases: in vivo
Sclerotinia sclerotiorum = test: Test of Preventive Effect on Cucumber Sclerotinia rot; settings: cucumber (Sagamihanjiro), foliage application 500 ppm before inoculation, 18° C. high humidity 4 days
Plasmopara viticola = test: Test of Curative Effect on Grape Downy Mildew; settings: grape (Berry-A), curative: foliage application 500 ppm 1 day after inoculation, greenhouse 23° C. 5 days then high humidity 1 day
[1] = test system: Erysiphe graminis f. sp. tritici; test: Test of Preventive Effect on Wheat Powdery Mildew; settings: wheat (Shirogane), foliage application 500 ppm before inoculation, 7 days at 23° C. after inoculation
Fusarium culmorum = test: Test of Preventive Effect on Wheat Fusarium blight; settings: wheat (Shirogane), foliage application 500 ppm before inoculation, 23° C. 4 days dark high humidity then 3 days lighting
Phytophthora infestans = settings: tomato (Patio), foliage application 500 ppm before inoculation, 23° C. high humidity 1 day then greenhouse 4 days
Botrytis cinerea = test: Test of Preventive Effect on Cucumber Gray Mold; settings: cucumber (Sagamihanjiro), foliage application 500 ppm before inoculation, 12° C. high humidity 4 days
Alternaria brassicicola = test: Test of Preventive Effect on Alternaria Leaf Spot; settings: Japanese radish (Wase 40-nichi), foliage application 500 ppm before inoculation, 24° C. high humidity 1 day then greenhouse 3 days

Compound | area of lesion spots on the treated plant relative to that on an untreated plant (Plasmopara viticola) | area of lesion spots on the treated plant relative to that on an untreated plant [1] | area of lesion spots on the treated plant relative to that on an untreated plant (Phytophthora infestans) | other results
C#CCOc1cc(C(=O)NCC2CCCCC2)ccn1 [compound 3] | – | – | – | area of lesion spots on the treated plant relative to that on an untreated plant (Sclerotinia sclerotiorum): ≤ 30%
CC(NC(=O)c1ccnc(F)c1)C1CCC1 (stereo not drawn) [compound 31] | ≤ 30% | ≤ 30% | – | –
O=C(NCC1CCCC1)c1ccnc(F)c1 [compound 16] | ≤ 30% | ≤ 30% | – | area of lesion spots on the treated plant relative to that on an untreated plant (Fusarium culmorum): ≤ 30%
CC(NC(=O)c1ccnc(F)c1)C1(O)CCCCC1 (stereo not drawn) [compound 34] | ≤ 30% | – | ≤ 30% | –
CC(NC(=O)c1ccnc(F)c1)C1CC1 (stereo not drawn) [compound 32] | – | – | ≤ 30% | –
CC1CCCC1NC(=O)c1cc(F)nc(F)c1 (stereo not drawn) [compound 28] | ≤ 30% | ≤ 30% | – | –
O=C(NC1CCCCC1)c1cc(F)nc(F)c1 [compound 26] | ≤ 30% | ≤ 30% | – | area of lesion spots on the treated plant relative to that on an untreated plant (Sclerotinia sclerotiorum): ≤ 30%; area of lesion spots on the treated plant relative to that on an untreated plant (Botrytis cinerea): ≤ 30%
O=C(NCC1CCCCC1)c1ccnc(F)c1 [compound 4] | – | – | ≤ 30% | area of lesion spots on the treated plant relative to that on an untreated plant (Sclerotinia sclerotiorum): ≤ 30%; area of lesion spots on the treated plant relative to that on an untreated plant (Alternaria brassicicola): ≤ 30%
COc1cc(C(=O)NC2CCCCC2C)ccn1 (stereo not drawn) [compound 13] | – | – | ≤ 30% | –
O=C(NC1CCCCC1Cl)c1ccnc(F)c1 (stereo not drawn) [compound 35] | ≤ 30% | ≤ 30% | – | area of lesion spots on the treated plant relative to that on an untreated plant (Sclerotinia sclerotiorum): ≤ 30%; area of lesion spots on the treated plant relative to that on an untreated plant (Alternaria brassicicola): ≤ 30%; area of lesion spots on the treated plant relative to that on an untreated plant (Botrytis cinerea): ≤ 30%
CC(=O)Nc1cc(C(=O)NCC2CCCCC2)ccn1 [compound 45] | – | – | ≤ 30% | –
C[C@H](NC(=O)c1cc(N)nc(F)c1)C1CCCCC1 [compound 49] | – | – | ≤ 30% | –
CC(=O)N(C(C)=O)c1cc(C(=O)NCC2CCCCC2)ccn1 [compound 46] | – | – | ≤ 30% | –
CC1CCCC1NC(=O)c1ccnc(F)c1 (stereo not drawn) [compound 15] | ≤ 30% | – | ≤ 30% | area of lesion spots on the treated plant relative to that on an untreated plant (Fusarium culmorum): ≤ 30%
O=C(NCC1CCCCC1)c1cc(F)nc(F)c1 [compound 22] | ≤ 30% | ≤ 30% | – | area of lesion spots on the treated plant relative to that on an untreated plant (Fusarium culmorum): ≤ 30%; area of lesion spots on the treated plant relative to that on an untreated plant (Botrytis cinerea): ≤ 30%
CC1CCCCC1NC(=O)c1ccnc(F)c1 (stereo not drawn) [compound 8] | – | ≤ 30% | ≤ 30% | –
O=C(NC1CCCCC1)c1ccnc(F)c1 [compound 18] | ≤ 30% | ≤ 30% | – | area of lesion spots on the treated plant relative to that on an untreated plant (Botrytis cinerea): ≤ 30%
C[C@H](NC(=O)c1cc(F)nc(F)c1)C1CCCCC1 [compound 23] | – | – | ≤ 30% | –
COc1cc(C(=O)N[C@@H](C)C2CCCCC2)ccn1 [compound 10] | – | – | ≤ 30% | –
COc1cc(C(=O)NCC2CCCCC2)ccn1 [compound 1] | – | – | ≤ 30% | area of lesion spots on the treated plant relative to that on an untreated plant (Botrytis cinerea): ≤ 30%
CC(NC(=O)c1ccnc(F)c1)C1CCCC1 (stereo not drawn) [compound 17] | – | ≤ 30% | – | area of lesion spots on the treated plant relative to that on an untreated plant (Fusarium culmorum): ≤ 30%
C[C@H](NC(=O)c1ccnc(F)c1)C1CCCCC1 [compound 7] | – | – | ≤ 30% | –
COc1cc(C(=O)NCC2(O)CCCCC2)ccn1 [compound 21] | ≤ 30% | ≤ 30% | – | –
